Results taken from patent US20080311599A1.
These are yes or no findings as the source states them, for the method shown. In cells and extracts the contact can be indirect. Values belong to the binder of their own block, whether it stands above or below them.

Target: active caspase-8 (human)
Assay: co-immunoprecipitation with mAb 179 from BJAB lysates, time course of Fas-ligand stimulation, Silver staining

binding: no binding
B1: 68 kDa fragment of p72 (protein)
chain: MSLKMDNRDVAGKANRWFGVAPPKSGKMNMNILHQEELIAQKKREIEAKMEQKAKQNQVASPQPPHPGEITNAHNSSCISNKFANDGSFLQQFLKLQKAQTSTDAPTSAPSAPPSTPTPSAGKRSLLISRRTGLGLASLPGPVKSYSHAKQLPVAHRPSVFQSPDEDEEEDYEQWLEIKVSPPEGAETRKVIEKLARFVAEGGPELEKVAMEDYKDNPAFAFLHDKNSREFLYYRKKVAEIRKEAQKSQAASQKVSPPEDEEVKNLAEKLARFIADGGPEVETIALQNNRENQAFSFLYEPNSQGYKYYRQKLEEFRKAKASSTGSFTAPDPGLKRKSPPEALSGSLPPATTCPASSTPAPTIIPAPAAPGKPASAATVKRKRKSRWGPEEDKVELLPAELVQRDVDASPSPLSVQDLKGLGYEKGKPVGLVGVTELSDAQKKQLKEQQEMQQMYDMIMQHKRAMQDMQLLWEKAVQQHQHGYDSDEEVDSELGTWEHQLRRMEMDKTREWAEQLTKMGRGKHFIGDFLPPDELEKFMETFKALKEGREPDYSEYKEFKLTVENIGYQMLMKMGWKEGEGLGSEGQGIKNPVNKGTTTVD

binding: no binding
B2: p72 (protein)
chain: MSLKMDNRDVAGKANRWFGVAPPKSGKMNMNILHQEELIAQKKREIEAKMEQKAKQNQVASPQPPHPGEITNAHNSSCISNKFANDGSFLQQFLKLQKAQTSTDAPTSAPSAPPSTPTPSAGKRSLLISRRTGLGLASLPGPVKSYSHAKQLPVAHRPSVFQSPDEDEEEDYEQWLEIKVSPPEGAETRKVIEKLARFVAEGGPELEKVAMEDYKDNPAFAFLHDKNSREFLYYRKKVAEIRKEAQKSQAASQKVSPPEDEEVKNLAEKLARFIADGGPEVETIALQNNRENQAFSFLYEPNSQGYKYYRQKLEEFRKAKASSTGSFTAPDPGLKRKSPPEALSGSLPPATTCPASSTPAPTIIPAPAAPGKPASAATVKRKRKSRWGPEEDKVELLPAELVQRDVDASPSPLSVQDLKGLGYEKGKPVGLVGVTELSDAQKKQLKEQQEMQQMYDMIMQHKRAMQDMQLLWEKAVQQHQHGYDSDEEVDSELGTWEHQLRRMEMDKTREWAEQLTKMGRGKHFIGDFLPPDELEKFMETFKALKEGREPDYSEYKEFKLTVENIGYQMLMKMGWKEGEGLGSEGQGIKNPVNKGTTTVDGAGFGIDRPAELSKEDDEYEAFRKRMMLAYRFRPNPLNNPRRPYY
